US20210315970A1, “Hepatitis A Virus Replication Inhibitor Targeting mTOR” (Tokyo Metropolitan Institute of Medical Science, priority 2020, published 2021)
At least one structure is not confirmed: it was looked up by name or label, or the drawing left a doubt.

Tested on: IRF1-responsive PRDIII-I and ISRE promoters
Experiment: Dual-luciferase reporter analysis of PRDIII-I and ISRE promoter activities
Type: cell-based, human
Details: PH5CH8 cells and Huh-7.5 cells

N#CC[C@H](C1CCCC1)n1cc(-c2ncnc3[nH]ccc23)cn1 [ruxolitinib]
baseline level activities of PRDIII-I and ISRE promoters: not reduced
